In PubChem BioAssay AID2685 (National Center for Advancing Translational Sciences (NCATS), 2010):
This is one part of the list. Shown are side measurements of this screen, not its main read-out; they come without a call. Compounds called inactive in the main read-out are mostly missing here. Words in brackets tell the shape of the fitted curve; partial curves, single points and poor fits give uncertain potencies.

Assay: qHTS Assay for Lipid Storage Modulators in Drosophila S3 Cells;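 on cell number change: cells counted by Cell Tracker Red CMTPX staining in the red channel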
Details: BODIPY lipid droplet fluorescence, 18-24 h; for cell number change: measured here: cell count max response, cells fed with added oleic acid
In short: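 Drosophila S3 cells loaded with oleic acid (400 uM, as added) and compounds at several concentrations; lipid droplets imaged by 488-nm laser-scanning cytometry, 500–530 nm intensity and object ratio to cell channel. Percent activity normalized to 20 uM Triacsin C.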

[1] = measured here: lipid fluorescence (Fed channel) AC50, cells fed with added oleic acid
[2] = measured here: cell number channel AC50, cells fed with added oleic acid

In the case of `Cc1cccc(-c2n[nH]c([N+](=O)[O-])n2)c1`, the AC50 [1] is reported as 0.92 µM [falling, full curve, poor fit].
Work on `COc1cc(/C=N/NC(=O)CC#N)ccc1Oc1nc(Cl)ncc1F` yielded a cell number change of -10.3%.
Molecule `CCCCNC(=O)CCc1nc2cccnc2n1Cc1ccccc1` has a cell number change of 8.33%.
For `COc1ccc(NC(=O)Cn2cc(C#N)c3ccccc32)cc1`, the cell number change was 68.9%, the AC50 [2] was 14.6 µM [rising, partial curve, poor fit] and the AC50 [1] was 18.4 µM [rising, partial curve, poor fit].
In the case of `COC(=O)Cn1cc(C(=O)C2CC2)c2ccccc21`, the cell number change is reported as -6.23% and the AC50 [2] is reported as 1.16 µM [falling, full curve, poor fit].
In the case of `Cc1cc(-c2nnc(SCC(=O)c3ccc(Cl)cc3)o2)no1`, the cell number change is reported as -58%, the AC50 [2] is reported as 32.6 µM [falling, partial curve] and the AC50 [1] is reported as 29.1 µM [falling, single point].
In the case of `CC(C)C(=O)Nc1ccc(C(=O)CN2C(=O)NC3(CCOc4ccccc43)C2=O)cc1` (stereo not given), the cell number change is reported as -32.5%, the AC50 [2] is reported as 0.0058 µM [falling, full curve, poor fit] and the AC50 [1] is reported as 25.9 µM [falling, partial curve].
For `CC(C)(C)c1ccc(C(=O)Nc2ccc(O)c3c(=O)cc(-c4cccc(Cl)c4)oc23)cc1`, the cell number change was -30.7%, the AC50 [2] was 7.31 µM [falling, partial curve] and the AC50 [1] was 20.6 µM [falling, single point].
For `O=C(COC(=O)c1nsc(Cl)c1Cl)NC1CCCC1`, the cell number change was -7.66% and the AC50 [1] was 4.11 µM [rising, full curve].
With `CCC(C)[C@H](NS(=O)(=O)c1ccc(C)cc1)C(=O)N1CCC(C(=O)N2CCC(C(N)=O)CC2)CC1` (stereo not given in full) the cell number change was 26.5% and the AC50 [1] was 29.1 µM [rising, partial curve].
Work on `Cc1nc(N2CCN(C)CC2)c2sc(=S)n(C)c2n1` yielded a cell number change of 3.2%.
With `C#CCOCCOCCOCCNc1nc(N2CCN(C(=O)CCCCCCCCCCNC(=O)Cn3cc(C[C@@H](C)O)nn3)CC2)nc(N2CCN(C(=O)CCCCCCCCCCNC(=O)[C@H](CCCCN)n3cc(CCCC(=O)O)nn3)CC2)n1` the cell number change was 8.05% and the AC50 [1] was 29.1 µM [falling, single point].
For `CC(=O)Nc1cccc(-c2csc(Nc3ncccn3)n2)c1`, the cell number change was 150%, the AC50 [2] was 0.651 µM [rising, single point] and the AC50 [1] was 6.51 µM [falling, single point].
Work on `Cc1oc(-c2ccc(Cl)cc2)nc1CS(=O)CC(=O)NC1CC1` (stereo not given) yielded a cell number change of -24%.
In the case of `Cn1c(=O)n(C)c2cc(NC(=O)c3cccc([N+](=O)[O-])c3)c(Br)cc21`, the cell number change is reported as 26.6% and the AC50 [1] is reported as 29.1 µM [rising, single point].
For `COc1cccc(-c2c(C(=O)N/N=C(\C)c3ccncc3)nnn2-c2nonc2N)c1`, the cell number change was 9.68% and the AC50 [1] was 0.731 µM [falling, single point].
In the case of `CCOC(=O)C1=C(C)NC(SCC(=O)Nc2nc(C)cs2)=C(C#N)C1c1cccs1` (stereo not given), the AC50 [1] is reported as 0.092 µM [falling, full curve, poor fit].
Molecule `COc1ccc(N(CC(=O)O)S(=O)(=O)c2ccc(OC)c(OC)c2)cc1` has a cell number change of 35.3%.
In the case of `C/C(N)=C(/C#N)C(=O)COC(=O)Cc1coc2ccc3ccccc3c12`, the cell number change is reported as 124%, the AC50 [2] is reported as 4.61 µM [rising, full curve] and the AC50 [1] is reported as 3.66 µM [rising, full curve].
For `CCN(/N=C/c1ccc(Cl)cc1)c1cc(=O)n(C)c(=O)[nH]1`, the cell number change was -14% and the AC50 [1] was 0.13 µM [rising, full curve, poor fit].
For `CCN1CCN(S(=O)(=O)c2ccc(Cl)c(C(=O)NC(C)(C)C)c2)CC1`, the cell number change was -2.76% and the AC50 [1] was 0.651 µM [falling, single point].
For `FC(F)(F)c1ccc(CN2CCCCCC2)cc1`, the cell number change was -11.3%, the AC50 [2] was 0.58 µM [falling, full curve, poor fit] and the AC50 [1] was 6.51 µM [falling, single point].
With `CCOc1ccccc1NC(=O)COc1coc(CN2CCc3ccccc32)cc1=O` the cell number change was 32.7% and the AC50 [2] was 29.1 µM [rising, single point].
In the case of `CCOC(=O)NC(=O)CSc1nc(-c2ccc(C)c(C)c2)cn1-c1ccccc1`, the AC50 [2] is reported as 6.51 µM [falling, single point].
For `CCC[N+]1(CC#CC(O)(c2ccccc2)C2CCCCC2)CCCCC1` (stereo not given), the cell number change was -8.75%.
Work on `CC1CCC(NC(=O)c2cc(C3CC3)nn2-c2ccccc2)CC1` (stereo not given) yielded a cell number change of -8.95%.
With `COc1ccc(C(=O)Oc2cc(N)n(S(=O)(=O)c3ccccc3)n2)cc1` the cell number change was 6.22% and the AC50 [1] was 6.51 µM [falling, single point].
Work on `CCN1CCN(c2cc(C)c3cc(NC(=S)N4CC(C)CC(C)C4)ccc3n2)CC1` (stereo not given) yielded a cell number change of 9.62%.
In the case of `Cc1[nH]c(=O)[nH]c(=O)c1S(=O)(=O)N1CCCC(C(=O)NCc2ccc3c(c2)OCO3)C1` (stereo not given), the cell number change is reported as 44.2%, the AC50 [2] is reported as 6.51 µM [rising, single point] and the AC50 [1] is reported as 5.17 µM [rising, single point].
